# In publication PMC12040169 (PLOS Biology, 2025):
# The list shows a part of the results.
# Test system: T1, CTL2-GFP (C. trachomatis L2/434/Bu, GFP-expressing)
# T1 construct: L2/434/Bu, GFP-expressing
# Set-up: species or system HeLa; Intracellular C. trachomatis growth in HeLa cells, bulk GFP fluorescence relative to DMSO
# Conditions: bulk GFP, single well; 28.5 h, 10 µM; inhibitor
row,Compound,% of control remaining [%]
1,CC(Oc1ccc(Cl)cc1Cl)C(=O)NCCc1cccc(Cl)c1 (stereo not drawn) [CBK265489],135.323
2,Nc1ccc(-c2nnc(SCC(=O)Nc3ccc(Br)cc3F)n2-c2ccccc2)cc1 [CBK267175],170.062
3,CC(=O)Nc1ccc(S(=O)(=O)Nc2cc(C)c(-n3nc4ccccc4n3)cc2O)cc1 [CBK268382],158.014
4,Clc1ccc(COc2cc(N3CCCN(Cc4ccccc4-c4ccccc4)CC3)ncn2)cc1Cl [CBK083781T],75.0174
5,NC(=O)Cn1cc(C(=O)c2ccncc2)c(=O)c2cc(Cl)ccc21 [CBK288584],127.966
6,N#Cc1ccc(NC(=O)CSc2cnn[nH]2)cc1 [CBK269931],127.796
7,CCOC(=O)c1[nH]c2ccccc2c1NS(=O)(=O)Cc1ccccc1 [CBK047413],145.035
8,c1ccc2cc(CCN3CCN(c4nccnc4OCCN4CCOCC4)CC3)ccc2c1 [CBK082911T],116.748
9,CN(C)CCCN1C(=O)C(O)=C(C(=O)c2ccc(F)cc2)C1c1ccco1 (stereo not drawn) [CBK264456],119.203
10,CS(=O)(=O)N1CC2(CCN(Cc3ncc[nH]3)CC2)c2ccccc21 [CBK126680],128.451
11,O=C(Nc1ccc(F)cc1)c1c(NS(=O)(=O)Cc2ccccc2[N+](=O)[O-])sc2c1CCCC2 [CBK028654],107.974
12,COC(=O)[C@@H](C)NC(=O)[C@H]1CN(S(=O)(=O)c2ccccc2)CCN1C(C)=O [CBK289626],142.98
13,CCN1C(=O)c2ccccc2C(=O)[C@@]2(C)CN(C(C)C)C[C@@H]12 [CBK283480],99.2918
14,Cc1ccc2c(c1)cc(C(=O)N1CCCC(C)(C(=O)NC3CCCC3)C1)n2C (stereo not drawn) [CBK286076],92.3414
15,COCC(=O)N1CCN2C(=O)c3ccc(Cl)cc3NC(=O)[C@H]2C1 [CBK289588],120.02
16,COc1ccc(C(=O)Nc2ccc(C3c4ccsc4CCN3C(C)=O)cc2)cc1 (stereo not drawn) [CBK286465],178.475
17,COc1ccc(C(=O)N2CC[C@H]3CC(=O)N(CCNC(C)=O)CC[C@H]3C2)cc1 [CBK288784],131.646
18,CCOC(=O)Cc1csc(SC(C)C(=O)N2CCNC2=O)n1 (stereo not drawn) [CBK304551],90.6764
19,O=C(O)/C=C\C(=O)NCC(=O)O [CBK260989],104.536
20,CCn1c(C)nnc1SCCNc1cc(C(C)C)nc2ccnn12 [CBK306829],117.331
21,Cc1ccc(-c2cncc(NCc3cccs3)n2)cc1C [CBK065967],138.045
22,OCCNCCOc1ccc(Cl)cc1Br [CBK265083G],104.453
23,Cc1cc(COc2cc(C(F)(F)F)ccn2)no1 [CBK115787],151.774
24,Cc1cccc(N/C=C(/C#N)c2nc(-c3ccc4c(c3)OCO4)cs2)c1C [CBK263013],108.978
25,OC(CN1CCN(Cc2ccc3c(c2)OCO3)CC1)C(F)(F)F (stereo not drawn) [CBK074833],85.1341
26,Cc1ccc(SCC(=O)NCc2nc(-c3ccccc3)no2)cc1 [CBK269474],129.499

row,Compound,% of control remaining [%]
1,Cc1cc(=O)oc2cc(OCC(=O)Nc3ccc(S(=O)(=O)O)cc3)ccc12 [CBK301204N],119.571
2,O=C(C1CCC1)N1CCN(c2ccccn2)CC1 [CBK026058],98.8745
3,NC(=O)C1CCN(C(=O)CSc2nc3ccccc3o2)CC1 [CBK265930],112.869
4,O=C(C1CC1)N1CCC(c2nc(Cc3cccs3)no2)C1 (stereo not drawn) [CBK282980],98.8545
5,Cc1nc2c(C(=O)NCC(F)(F)F)cnn2c(C)c1Cc1cccc(F)c1 [CBK162117],93.21
6,CCOC(=O)[C@@]12CC=CCN(C(=O)c3cccnc3)[C@@H]1CCC2 [CBK284575],143.985
7,COc1ccc2[nH]c3c(c2c1)CCNC31CCCN(CCc2ccc(F)cc2)C1 (stereo not drawn) [CBK039246],95.2434
8,Cc1cc(NC(=O)NC2CCOc3ccccc32)no1 (stereo not drawn) [CBK304581],127.92
9,Cc1cc(CN(C)Cc2ccc(-n3ccnc3C)cc2)n[nH]1 [CBK281989],152.47
10,O=C(CSS(=O)(=O)O)NCc1ccccc1 [CBK260897N],109.06
11,CCCN(CCc1ccc(C(F)(F)F)cc1)C1Cc2cc(OC)c(OC)cc2C1 [CBK017829C],55.4143
12,Cc1nccn1CCCn1cncc1-c1cnn(C2CCCCC2)c1 [CBK281816],115.255
13,O=c1cc(CN2CCN(c3ccccc3)CC2)occ1O [CBK288392],137.268
14,COc1ccc(C(CNCC(O)COc2cccc3c2CCCC3)c2ccccc2)cc1 (stereo not drawn) [CBK028144],125.5
15,CCN(CC)C(=O)CNS(=O)(=O)c1ccc(C)cc1 [CBK034491],144.952
16,Cc1nc[nH]c1CN(Cc1cccc(F)c1)Cc1ccco1 [CBK282493],115.785
17,Cc1ccc(C2(O)CCN(CCNC(=O)c3cccs3)CC2)cc1 [CBK283322],106.383
18,Cc1ccc2cc(COc3cccnc3[N+](=O)[O-])c(Cl)nc2c1C [CBK297113],96.3565
19,O=C(c1ccc(OC(F)(F)F)cc1)N1CCC2(CCN(C(=O)c3cc(F)c(F)cc3F)C2)C1 (stereo not drawn) [CBK131384],101.673
20,CS(=O)(=O)Nc1ncc(-c2ccco2)cc1C(=O)NCc1ccc(F)cc1 [CBK076479],91.0802
21,N#CCCN(C1CCCCC1)S(=O)(=O)c1cccc2nsnc12 [CBK009093],121.781
22,O=S(=O)(c1ccc(Cl)cc1)N1CCN(c2cc(-c3ccco3)ncn2)CC1 [CBK091161],203.646
23,CN(C)S(=O)(=O)Nc1ccc2[nH]ccc2c1 [CBK156321],112.076
24,O=C1CN(Cc2cnn(-c3ccc(F)cc3)c2)CCN1C1CCCC1 [CBK281926],158.229
25,CCC12CN3CC(CC)(CN(C1)C3c1ccccc1[N+](=O)[O-])C2=O (stereo not drawn) [CBK264604],106.268

# Copied from the listing, 3 compounds:
row,Compound,% of control remaining [%]
7,COc1ccc2[nH]c3c(c2c1)CCNC31CCCN(CCc2ccc(F)cc2)C1 (stereo not drawn) [CBK039246],95.2434
8,Cc1cc(NC(=O)NC2CCOc3ccccc32)no1 (stereo not drawn) [CBK304581],127.92
9,Cc1cc(CN(C)Cc2ccc(-n3ccnc3C)cc2)n[nH]1 [CBK281989],152.47
